# Assay results from publication PMC8384837.
# Numbering of substitutions follows the chain as printed. The list shows a part of the results. For some of these results: At the low end of the ranking the order means little.
# Columns and labels:
# Details in all cases: yeast three-hybrid, YBZ-1, SC-Leu-His + 0.5 mM 3-AT, 4 days
# [1] = target: T1, PUM1 PUF domain R4-QPS N971Q + H972P + Q975S (UniProt Q14671)
# T1 sequence: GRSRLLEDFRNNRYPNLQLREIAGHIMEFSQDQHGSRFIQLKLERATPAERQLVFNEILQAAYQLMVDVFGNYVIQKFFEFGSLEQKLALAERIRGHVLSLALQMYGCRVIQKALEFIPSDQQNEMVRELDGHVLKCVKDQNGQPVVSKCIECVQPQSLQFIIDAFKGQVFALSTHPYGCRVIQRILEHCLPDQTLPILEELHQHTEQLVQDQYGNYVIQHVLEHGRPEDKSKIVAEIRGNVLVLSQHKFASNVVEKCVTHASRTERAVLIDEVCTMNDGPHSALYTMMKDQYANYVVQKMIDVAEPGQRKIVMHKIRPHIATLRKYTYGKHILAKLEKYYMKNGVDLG
# [2] = target: T2, PUM1 PUF domain R4-QRG N971Q + H972R + Q975G (Homo sapiens) (UniProt Q14671)
# T2 sequence: T1 sequence with P145R, S148G
# [3] = target: T3, PUM1 PUF domain R4-RCG N971R + H972C + Q975G (UniProt Q14671)
# T3 sequence: T1 sequence with Q144R, P145C, S148G
# [4] = target: T4, PUM1 PUF domain R4-RGG N971R + H972G + Q975G (Homo sapiens) (UniProt Q14671)
# T4 sequence: T1 sequence with Q144R, P145G, S148G
# [5] = target: T5, PUM1 PUF domain R4-RGY N971R + H972G + Q975Y (UniProt Q14671)
# T5 sequence: T1 sequence with Q144R, P145G, S148Y
# [6] = target: T6, PUM1 PUF domain R4-RHA N971R + Q975A (UniProt Q14671)
# T6 sequence: T1 sequence with Q144R, P145H, S148A
# [7] = target: T7, PUM1 PUF domain R4-RHG N971R + Q975G (Homo sapiens) (UniProt Q14671)
# T7 sequence: T1 sequence with Q144R, P145H, S148G
# [8] = target: T8, PUM1 PUF domain R4-RHL N971R + Q975L (UniProt Q14671)
# T8 sequence: T1 sequence with Q144R, P145H, S148L
# [9] = target: T9, PUM1 PUF domain R4-RHS N971R + Q975S (UniProt Q14671)
# T9 sequence: T1 sequence with Q144R, P145H
# [10] = target: T10, PUM1 PUF domain R4-RIF N971R + H972I + Q975F (UniProt Q14671)
# T10 sequence: T1 sequence with Q144R, P145I, S148F
# [11] = target: T11, PUM1 PUF domain R4-RLF N971R + H972L + Q975F (UniProt Q14671)
# T11 sequence: T1 sequence with Q144R, P145L, S148F
# [12] = target: T12, PUM1 PUF domain R4-RMA N971R + H972M + Q975A (UniProt Q14671)
# T12 sequence: T1 sequence with Q144R, P145M, S148A
# [13] = target: T13, PUM1 PUF domain R4-RMG N971R + H972M + Q975G (Homo sapiens) (UniProt Q14671)
# T13 sequence: T1 sequence with Q144R, P145M, S148G
# [14] = target: T14, PUM1 PUF domain R4-RMR N971R + H972M + Q975R (UniProt Q14671)
# T14 sequence: T1 sequence with Q144R, P145M, S148R
# [15] = target: T15, PUM1 PUF domain R4-RMS N971R + H972M + Q975S (UniProt Q14671)
# T15 sequence: T1 sequence with Q144R, P145M
# [16] = target: T16, PUM1 PUF domain R4-RRY N971R + H972R + Q975Y (UniProt Q14671)
# T16 sequence: T1 sequence with Q144R, P145R, S148Y
# [17] = target: T17, PUM1 PUF domain R4-RVY N971R + H972V + Q975Y (UniProt Q14671)
# T17 sequence: T1 sequence with Q144R, P145V, S148Y
# [18] = target: T18, PUM1 PUF domain R4-RYP N971R + H972Y + Q975P (UniProt Q14671)
# T18 sequence: T1 sequence with Q144R, P145Y, S148P
# [19] = target: T19, PUM1 PUF domain R4-SCS N971S + H972C + Q975S (UniProt Q14671)
# T19 sequence: T1 sequence with Q144S, P145C
# [20] = target: T20, PUM1 PUF domain R4-SFP N971S + H972F + Q975P (UniProt Q14671)
# T20 sequence: T1 sequence with Q144S, P145F, S148P
# [21] = target: T21, PUM1 PUF domain R4-SIG N971S + H972I + Q975G (UniProt Q14671)
# T21 sequence: T1 sequence with Q144S, P145I, S148G
# [22] = target: T22, PUM1 PUF domain R4-SLS N971S + H972L + Q975S (UniProt Q14671)
# T22 sequence: T1 sequence with Q144S, P145L
# [23] = target: T23, PUM1 PUF domain R4-SLY N971S + H972L + Q975Y (UniProt Q14671)
# T23 sequence: T1 sequence with Q144S, P145L, S148Y
# [24] = target: T24, PUM1 PUF domain R4-SMC N971S + H972M + Q975C (UniProt Q14671)
# T24 sequence: T1 sequence with Q144S, P145M, S148C
# [25] = target: T25, PUM1 PUF domain R4-SML N971S + H972M + Q975L (Homo sapiens) (UniProt Q14671)
# T25 sequence: T1 sequence with Q144S, P145M, S148L
# [26] = target: T26, PUM1 PUF domain R4-SMR N971S + H972M + Q975R (Homo sapiens) (UniProt Q14671)
# T26 sequence: T1 sequence with Q144S, P145M, S148R
# [27] = target: T27, PUM1 PUF domain R4-SMS N971S + H972M + Q975S (Homo sapiens) (UniProt Q14671)
# T27 sequence: T1 sequence with Q144S, P145M
# [28] = target: T28, PUM1 PUF domain R4-SMT N971S + H972M + Q975T (UniProt Q14671)
# T28 sequence: T1 sequence with Q144S, P145M, S148T
# [29] = target: T29, PUM1 PUF domain R4-SMV N971S + H972M + Q975V (Homo sapiens) (UniProt Q14671)
# T29 sequence: T1 sequence with Q144S, P145M, S148V
# [30] = target: T30, PUM1 PUF domain R4-SNA N971S + H972N + Q975A (UniProt Q14671)
# T30 sequence: T1 sequence with Q144S, P145N, S148A
# [31] = target: T31, PUM1 PUF domain R4-SNC N971S + H972N + Q975C (UniProt Q14671)
# T31 sequence: T1 sequence with Q144S, P145N, S148C
# [32] = target: T32, PUM1 PUF domain R4-SNF N971S + H972N + Q975F (UniProt Q14671)
# T32 sequence: T1 sequence with Q144S, P145N, S148F
# [33] = target: T33, PUM1 PUF domain R4-SNG N971S + H972N + Q975G (UniProt Q14671)
# T33 sequence: T1 sequence with Q144S, P145N, S148G
# [34] = target: T34, PUM1 PUF domain R4-SNL N971S + H972N + Q975L (UniProt Q14671)
# T34 sequence: T1 sequence with Q144S, P145N, S148L
# [35] = target: T35, PUM1 PUF domain R4-SNQ N971S + H972N (UniProt Q14671)
# T35 sequence: T1 sequence with Q144S, P145N, S148Q
# [36] = target: T36, PUM1 PUF domain R4-SNR N971S + H972N + Q975R (UniProt Q14671)
# T36 sequence: T1 sequence with Q144S, P145N, S148R
# [37] = target: T37, PUM1 PUF domain R4-SNS N971S + H972N + Q975S (UniProt Q14671)
# T37 sequence: T1 sequence with Q144S, P145N
# [38] = target: T38, PUM1 PUF domain R4-SNV N971S + H972N + Q975V (UniProt Q14671)
# T38 sequence: T1 sequence with Q144S, P145N, S148V
# [39] = target: T39, PUM1 PUF domain R4-SPA N971S + H972P + Q975A (UniProt Q14671)
# T39 sequence: T1 sequence with Q144S, S148A
# [40] = target: T40, PUM1 PUF domain R4-SPC N971S + H972P + Q975C (Homo sapiens) (UniProt Q14671)
# T40 sequence: T1 sequence with Q144S, S148C
sequence,measurement,setting,value
GGCUAGAACUAGUGGAUCCCCCGGCGCCCGGCGGCUCGAGCCCGGGUAAGUGUAGAUAGUCUGCAUGCCGCCGGGCGCCAUGCCUGCAGGUCGACUCUAGAAAACAUG,binding signal (log2 enrichment (interaction score)),[1],< -6.88
same,binding signal (log2 enrichment (interaction score)),[2],-2
same,binding signal (log2 enrichment (interaction score)),[3],< -8.07
same,binding signal (log2 enrichment (interaction score)),[4],-3.56
same,binding signal (log2 enrichment (interaction score)),[5],< -6.1
same,binding signal (log2 enrichment (interaction score)),[6],< -5.33
same,binding signal (log2 enrichment (interaction score)),[7],-0.93
same,binding signal (log2 enrichment (interaction score)),[8],< -5.82
same,binding signal (log2 enrichment (interaction score)),[9],< -5.41
same,binding signal (log2 enrichment (interaction score)),[10],< -4.83
same,binding signal (log2 enrichment (interaction score)),[11],< -5.56
same,binding signal (log2 enrichment (interaction score)),[12],< -7.3
same,binding signal (log2 enrichment (interaction score)),[13],-4.45
same,binding signal (log2 enrichment (interaction score)),[14],< -7.68
same,binding signal (log2 enrichment (interaction score)),[15],< -5.61
same,binding signal (log2 enrichment (interaction score)),[16],< -5.66
same,binding signal (log2 enrichment (interaction score)),[17],< -6.39
same,binding signal (log2 enrichment (interaction score)),[18],< -6.55
same,binding signal (log2 enrichment (interaction score)),[19],< -7.99
same,binding signal (log2 enrichment (interaction score)),[20],< -6.53
same,binding signal (log2 enrichment (interaction score)),[21],< -8.59
same,binding signal (log2 enrichment (interaction score)),[22],< -8.38
same,binding signal (log2 enrichment (interaction score)),[23],< -8.31
same,binding signal (log2 enrichment (interaction score)),[24],< -6.62
same,binding signal (log2 enrichment (interaction score)),[25],-4.44
same,binding signal (log2 enrichment (interaction score)),[26],-5.06
same,binding signal (log2 enrichment (interaction score)),[27],-2.63
same,binding signal (log2 enrichment (interaction score)),[28],< -7.16
same,binding signal (log2 enrichment (interaction score)),[29],-3.91
same,binding signal (log2 enrichment (interaction score)),[30],< -7.35
same,binding signal (log2 enrichment (interaction score)),[31],< -7.43
same,binding signal (log2 enrichment (interaction score)),[32],< -6.17
same,binding signal (log2 enrichment (interaction score)),[33],< -7.76
same,binding signal (log2 enrichment (interaction score)),[34],< -6.68
same,binding signal (log2 enrichment (interaction score)),[35],< -5.15
same,binding signal (log2 enrichment (interaction score)),[36],< -7.47
same,binding signal (log2 enrichment (interaction score)),[37],< -7.37
same,binding signal (log2 enrichment (interaction score)),[38],< -6.71
same,binding signal (log2 enrichment (interaction score)),[39],< -5.42
same,binding signal (log2 enrichment (interaction score)),[40],-1.68

# Random excerpt: 2 entries already listed
sequence,measurement,setting,value
GGCUAGAACUAGUGGAUCCCCCGGCGCCCGGCGGCUCGAGCCCGGGUAAGUGUAGAUAGUCUGCAUGCCGCCGGGCGCCAUGCCUGCAGGUCGACUCUAGAAAACAUG,binding signal (log2 enrichment (interaction score)),[7],-0.93
same,binding signal (log2 enrichment (interaction score)),[36],< -7.47
